Patent US8293731B2, “HIV integrase inhibitors” (Merck Sharp + Dohme Corp., priority 2005, dated 2012)
Some results were stated once for a whole list of compounds, not compound by compound.

Target: T1, HIV integrase (Human immunodeficiency virus type 1 group M subtype B, UniProt P04585)
T1 construct: HIV Integrase Assay: Strand Transfer Catalyzed by Recombinant Integrase
Assay: HIV integrase assay: strand transfer catalyzed by recombinant integrase
Format: biochemical
Conditions: 'less than about', read-out: IC50, inhibition of strand transfer activity of integrase

Compound `CN1CCn2c(c3c(c(O)c2=O)C(=O)N(Cc2ccc(F)c(Cl)c2)CC3)C1=O` [Example 6, 9-(3-Chloro-4-fluorobenzyl)-7-hydroxy-2-methyl-3,4,10,11-tetrahydro-2H-pyrazino[2,1-a]-2,6-naphthyridine-1,6,8(9H)-trione] has an IC50 of less than 1 µM.
With `O=C1OCCCCn2c1c1c(c(O)c2=O)C(=O)N(Cc2ccc(F)c(Cl)c2)CC1` [Example 61, 11-(3-Chloro-4-fluorobenzyl)-9-hydroxy-3,4,5,6,12,13-hexahydro-[1,4]oxazocino[3,4-a]-2,6-naphthyridine-1,8,10(11H)-trione] the IC50 was less than 1 µM.
In the case of `O=C1OC(CO)Cn2c1c1c(c(O)c2=O)C(=O)N(Cc2ccc(F)c(Cl)c2)CC1` (centres unmarked) [Example 64, 9-(3-Chloro-4-fluorobenzyl)-7-hydroxy-3-(hydroxymethyl)-3,4,10,11-tetrahydro[1,4]oxazino[3,4-a]-2,6-naphthyridine-1,6,8(9H)trione], the IC50 is reported as less than 1 µM.
With `CC(=O)OCCN1CCCCn2c(c3c(c(O)c2=O)C(=O)N(Cc2ccc(F)c(Cl)c2)CC3)C1=O` [Example 10, 11-(3-Chloro-4-fluorobenzyl)-9-hydroxy-2-[2-(acetyloxy)ethyl]-3,4,5,6,12,13-hexahydro-2H[1,4]diazocino[2,1-a]-2,6-naphthyridine-1,8,10(11H)-trione] the IC50 was less than 1 µM.
In the case of `CN1CCCCn2c(c3c(c(O)c2=O)C(=O)N(Cc2ccc(F)c(Cl)c2)CC3)C1=O` [Example 1, 11-(3-Chloro-4-fluorobenzyl)-9-hydroxy-2-methyl-3,4,5,6,12,13-hexahydro-2H[1,4]diazocino[2,1-a]-2,6-naphthyridine-1,8,10(11H)-trione], the IC50 is reported as less than 1 µM.
With `C[C@H]1C[C@@H](O)CN(C)C(=O)c2c3c(c(O)c(=O)n21)C(=O)N(Cc1ccc(F)c(Cl)c1)CC3` [Example 43, (4R,6S)-11-(3-Ch1oro-4-fluorobenzyl)-4,9-dihydroxy-2,6-dimethyl-3,4,5,6,12,13-hexahydro-2H[1,4]diazocino[2,1-a]-2,6-naphthyridine-1,8,10(11H)-trione] the IC50 was less than 1 µM.
In the case of `O=C1NCCn2c1c1c(c(O)c2=O)C(=O)N(Cc2ccc(F)c(Cl)c2)CC1` [Example 5, 9-(3-Chloro-4-fluorobenzyl)-7-hydroxy-3,4,10,11-tetrahydro-2H-pyrazino[2,1-a]-2,6-naphthyridine-1,6,8(9H)-trione], the IC50 is reported as less than 1 µM.
Work on `CC1(C)C(=O)N(CCO)c2c3c(c(O)c(=O)n21)C(=O)N(Cc1ccc(F)c(Cl)c1)CC3` [Example 54, 8-(3-Chloro-4-fluorobenzyl)-6-hydroxy-1-(2-hydroxyethyl)-3,3-dimethyl-1,8,9,10-tetrahydroimidazo[2,1-a]-2,6-naphthyridine-2,5,7(3H)-trione] yielded an IC50 of less than 1 µM.
In the case of `CC1C(=O)N(C)c2c3c(c(O)c(=O)n21)C(=O)N(Cc1ccc(F)c(Cl)c1)CC3` (centres unmarked) [Example 8, 8-(3-Chloro-4-fluorobenzyl)-6-hydroxy-1,3-dimethyl-1,8,9,10-tetrahydroimidazo[2,1-a]-2,6-naphthyridine-2,5,7(3H)-trione], the IC50 is reported as less than 1 µM.
Work on `CN1CC(N2CCCC2)CCn2c(c3c(c(O)c2=O)C(=O)N(Cc2ccc(F)c(Cl)c2)CC3)C1=O` (centres unmarked) [Example 26, 11-(3-Chloro-4-fluorobenzyl)-9-hydroxy-2-methyl-4-pyrrolidin-1-yl-3,4,5,6,12,13-hexahydro-2H[1,4]diazocmo[2,1-a]-2,6-naphthyridine-1,8,10(11H)-trione] yielded an IC50 of less than 1 µM.
With `CC(=O)OCCN1C(=O)C(C)(C)n2c1c1c(c(O)c2=O)C(=O)N(Cc2ccc(F)c(Cl)c2)CC1` [Example 57, 8(3-Chloro-4-fluorobenzyl)-6-hydroxy-1-(2-acetyloxyethyl)-3,3-dimethyl-1,8,9,10-tetrahydroimidazo[2,1-a]-2,6-naphthyridine-2,5,7(3H)-trione] the IC50 was less than 1 µM.
With `CC1CCCN(CCN2CCCCC2)C(=O)c2c3c(c(O)c(=O)n21)C(=O)N(Cc1ccc(F)c(Cl)c1)CC3` (centres unmarked) [Example 33, 11-(3-Chloro-4-fluorobenzyl)-9-hydroxy-2-(2-piperidinyl-1-ylethyl)-6-methyl-3,4,5,6,12,13-hexahydro-2H[1,4]diazocino[2,1-a]-2,6-naphthyridine-1,8,10(11H)-trione] the IC50 was less than 1 µM.
With `CN1CC(=O)CCn2c(c3c(c(O)c2=O)C(=O)N(Cc2ccc(F)c(Cl)c2)CC3)C1=O` [Example 25, 11-(3-Chloro-4-fluorobenzyl)-9-hydroxy-2-methyl-5,6,12,13-tetrahydro-2H[1,4]diazocino[2,1-a]-2,6-naphthyridine-1,4,8,10(3H, 11H)-tetrone] the IC50 was less than 1 µM.
For `COCCN1CCCCn2c(c3c(c(O)c2=O)C(=O)N(Cc2ccc(F)c(Cl)c2)CC3)C1=O` [Example 22, 11-(3-Chloro-4-fluorobenzyl)-9-hydroxy-2-[2-(methoxy)ethyl]-3,4,5,6,12,13-hexahydro-2H[1,4]diazocino[2,1-a]-2,6-naphthyridine-1,8,10(11H)-trione], the IC50 was less than 1 µM.
For `O=C1OCCCn2c1c1c(c(O)c2=O)C(=O)N(Cc2ccc(F)c(Cl)c2)CC1` [Example 62, 10-(3-Chloro-4-fluorobenzyl)-8-hydroxy-4,5,11,12-tetrahydro-3H-[1,4]oxazepino[3,4-a]-2,6-naphthyridine-1,7,9(10H)-trione], the IC50 was less than 1 µM.
`CC1CCCN(CCN2CCOCC2)C(=O)c2c3c(c(O)c(=O)n21)C(=O)N(Cc1ccc(F)c(Cl)c1)CC3` (centres unmarked) [Example 32, 11-(3-Chloro-4-fluorobenzyl)-9-hydroxy-2-(2-morpholin-4-ylethyl)-6-methyl-3,4,5,6,12,13-hexahydro-2H[1,4]diazocino[2,1-a]-2,6-naphthyridine-1,8,10(11H)-trione] was tested, and the IC50 was less than 1 µM.
For `CNC(=O)CN1CCCCn2c(c3c(c(O)c2=O)C(=O)N(Cc2ccc(F)c(Cl)c2)CC3)C1=O` [Example 14, 2-[11-(3-Chloro-4-fluorobenzyl)-9-hydroxy-1,8,10-trioxo-1,3,4,5,6,8,10,11,12,13-deca-hydro-2H-[1,4]diazocino[2,1-a]-2,6-naphthyridin-2-yl]-N-methylacetamide], the IC50 was less than 1 µM.
`CC(=O)OCC1Cn2c(c3c(c(O)c2=O)C(=O)N(Cc2ccc(F)c(Cl)c2)CC3)C(=O)O1` (centres unmarked) [Example 63, 9-(3-Chloro-4-fluorobenzyl)-7-hydroxy-3-(acetyloxymethyl)-3,4,10,11-tetrahydro[1,4]oxazino[3,4-a]-2,6-naphthyridine-1,6,8(9H)-trione] showed an IC50 of less than 1 µM.
`CC1(C)C(=O)N(CC(N)=O)c2c3c(c(O)c(=O)n21)C(=O)N(Cc1ccc(F)c(Cl)c1)CC3` [Example 53, 2-[8-(3-Chloro-4-fluorobenzyl)-6-hydroxy-3,3-dimethyl-2,5,7-trioxo-2,3,7,8,9,10-hexahydroimidazo[2,1-a]-2,6-naphthyridin-1(5H)-yl]acetamide] was tested, and the IC50 was less than 1 µM.
Compound `CC1CCCN(CCn2cccn2)C(=O)c2c3c(c(O)c(=O)n21)C(=O)N(Cc1ccc(F)c(Cl)c1)CC3` (centres unmarked) [Example 35, 11-(3-Chloro-4-fluorobenzyl)-9-hydroxy-2-[2-(1H-pyrazol-1-yl)ethyl]-6-methyl-3,4,5,6,12,13-hexahydro-2H[1,4]diazocino[2,1-a]-2,6-naphthyridine-1,8,10(11H)-trione] has an IC50 of less than 1 µM.
In the case of `O=C1OCCn2c1c1c(c(O)c2=O)C(=O)N(Cc2ccc(F)c(Cl)c2)CC1` [Example 7, 9-(3-Chloro-4-fluorobenzyl)-7-hydroxy-3,4,10,11-tetrahydro[1,4]oxazino[3,4-a]-2,6-naphthyridine-1,6,8(9H)-trione], the IC50 is reported as less than 1 µM.
Compound `CC1(C)C(=O)N(CCCCO)c2c3c(c(O)c(=O)n21)C(=O)N(Cc1ccc(F)c(Cl)c1)CC3` [Example 56, 8-(3-Chloro-4-fluorobenzyl)-6-hydroxy-1-(4-hydroxybutyl)-3,3-dimethyl-1,8,9,10-tetrahydroimidazo[2,1-a]-2,6-naphthyridine-2,5,7(3H)-trione] has an IC50 of less than 1 µM.
For `CC1CCCN(CCN2CCCC2)C(=O)c2c3c(c(O)c(=O)n21)C(=O)N(Cc1ccc(F)c(Cl)c1)CC3` (centres unmarked) [Example 34, 11-(3-Chloro-4-fluorobenzyl)-9-hydroxy-2-(2-pyrrolidinyl-1-ylethyl)-6-methyl-3,4,5,6,12,13-hexahydro-2H[1,4]diazocino[2,1-a]-2,6-naphthyridine-1,8,10(11H)-trione], the IC50 was less than 1 µM.
Work on `CN1CCC[C@@H](CO)n2c(c3c(c(O)c2=O)C(=O)N(Cc2ccc(F)c(Cl)c2)CC3)C1=O` [Example 49, (6S)-11-(3-Chloro-4-fluorobenzyl)-9-hydroxy-6-(hydroxymethyl)-2-methyl-3,4,5,6,12,13-hexahydro-2H-[1,4]diazocino[2,1-a]-2,6-naphthyridine-1,8,10(11H)-trione] yielded an IC50 of less than 1 µM.
In the case of `CN1C(=O)C(C)(C)n2c1c1c(c(O)c2=O)C(=O)N(Cc2ccc(F)c(Cl)c2)CC1` [Example 9, 8-(3-Chloro-4-fluorobenzyl)-6-hydroxy-1,3,3-trimethyl-1,8,9,10-tetrahydroimidazo[2,1a]-2,6-naphthyridine-2,5,7(3H)-trione], the IC50 is reported as less than 1 µM.
Compound `C[C@H]1C[C@H](O)CN(C)C(=O)c2c3c(c(O)c(=O)n21)C(=O)N(Cc1ccc(F)c(Cl)c1)CC3` [Example 44, (4S,6S)-11-(3-Chloro-4-fluorobenzyl)-4,9-dihydroxy-2,6-dimethyl-3,4,5,6,12,13-hexahydro-2H[1,4]diazocino[2,1-a]-2,6-naphthyridine-1,8,10(11H)-trione] has an IC50 of less than 1 µM.
`CC1(C)C(=O)N(CCCO)c2c3c(c(O)c(=O)n21)C(=O)N(Cc1ccc(F)c(Cl)c1)CC3` [Example 55, 8-(3-Chloro-4-fluorobenzyl)-6-hydroxy-1-(3-hydroxypropyl)-3,3-dimethyl-1,8,9,10-tetrahydroimidazo[2,1-a]-2,6-naphthyridine-2,5,7(3H)-trione] was tested, and the IC50 was less than 1 µM.
Work on `CN1CC(C)(C)CCn2c(c3c(c(O)c2=O)C(=O)N(Cc2ccc(F)c(Cl)c2)CC3)C1=O` [Example 45, 11-(3-Chloro-4-fluorobenzyl)-9-hydroxy-2,4,4-trimethyl-3,4,5,6,12,13-hexahydro-2H[1,4]diazocino[2,1-a]-2,6-naphthyridine-1,8,10(11H)trione] yielded an IC50 of less than 1 µM.
For `CN1CCC[C@H](CO)n2c(c3c(c(O)c2=O)C(=O)N(Cc2ccc(F)c(Cl)c2)CC3)C1=O` [Example 47, (6R)-11-(3-Chloro-4-fluorobenzyl)-9-hydroxy-6-(hydroxymethyl)-2-methyl-3,4,5,6,12,13-hexahydro-2H-[1,4]diazocino[2,1-a]-2,6-naphthyridine-1,8,10(11H)-trione], the IC50 was less than 1 µM.
